Measurements taken from paper doi:10.1101/529222.
Results are given in words; binding and its absence hold for the method and conditions named. Binding seen in cells or lysates may run through a third protein. Binding calls can cover weak binding; strength is not graded here. Tags and fused reporters may be left off the sequences shown.

Target: T1, Myc-TRIM67 (mouse) (UniProt Q505D9)
T1 sequence: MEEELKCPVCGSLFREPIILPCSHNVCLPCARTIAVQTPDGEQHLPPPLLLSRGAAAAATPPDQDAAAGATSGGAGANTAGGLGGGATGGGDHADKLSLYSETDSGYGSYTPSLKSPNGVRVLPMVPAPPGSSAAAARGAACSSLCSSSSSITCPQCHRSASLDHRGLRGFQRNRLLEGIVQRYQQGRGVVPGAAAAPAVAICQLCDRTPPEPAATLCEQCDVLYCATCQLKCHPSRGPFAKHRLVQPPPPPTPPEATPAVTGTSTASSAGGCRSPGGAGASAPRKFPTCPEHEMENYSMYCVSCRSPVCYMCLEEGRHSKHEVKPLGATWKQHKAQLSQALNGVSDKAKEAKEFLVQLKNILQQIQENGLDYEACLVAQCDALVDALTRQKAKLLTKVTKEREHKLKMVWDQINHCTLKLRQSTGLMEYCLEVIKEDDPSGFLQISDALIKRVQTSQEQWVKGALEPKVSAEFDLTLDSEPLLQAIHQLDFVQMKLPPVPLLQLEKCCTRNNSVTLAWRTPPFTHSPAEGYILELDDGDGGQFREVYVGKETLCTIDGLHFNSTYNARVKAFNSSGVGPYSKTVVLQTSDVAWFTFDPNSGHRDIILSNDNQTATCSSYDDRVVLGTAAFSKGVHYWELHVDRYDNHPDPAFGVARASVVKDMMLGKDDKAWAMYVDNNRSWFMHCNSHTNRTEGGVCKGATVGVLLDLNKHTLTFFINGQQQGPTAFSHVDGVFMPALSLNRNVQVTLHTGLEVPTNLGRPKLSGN
Experiment: co-IP

GFP-Mena (from UniProt Q03173-3)
binding: binds
